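Human melanoma cell lines in 1,536-well plates were treated with a pair of drugs for 72 h, then fixed, stained and imaged. The read-out is cell count (nuclei) in % of the DMSO control; lower values mean stronger growth inhibition or killing. Concentrations were fixed for each drug; these are the lower of two levels, a fifth of the higher. These are primary screening values without error estimates.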
An unselected part of the screen is shown.

Compounds and concentrations:
enzastaurin, 0.8 µM: Cn1cc(C2=C(c3cn(C4CCN(Cc5ccccn5)CC4)c4ccccc34)C(=O)NC2=O)c2ccccc21
lenalidomide, 1 µM: Nc1cccc2c1CN(C1CCC(=O)NC1=O)C2=O (stereo not given)
lestaurtinib, 0.004 µM: C[C@]12O[C@H](C[C@]1(O)CO)n1c3ccccc3c3c4c(c5c6ccccc6n2c5c31)CNC4=O
XAV939, 2 µM: Oc1nc(-c2ccc(C(F)(F)F)cc2)nc2c1CSCC2
darinaparsin, 0.4 µM: C[As](C)SC[C@H](NC(=O)CC[C@H](N)C(=O)O)C(=O)NCC(=O)O
ZM336372, 2 µM: Cc1ccc(NC(=O)c2cccc(N(C)C)c2)cc1NC(=O)c1ccc(O)cc1
FK866, 0.01 µM: O=C(/C=C/c1cccnc1)NCCCCC1CCN(C(=O)c2ccccc2)CC1
SU6656, 0.4 µM: CN(C)S(=O)(=O)c1ccc2c(c1)/C(=C/c1cc3c([nH]1)CCCC3)C(=O)N2
perifosine, 0.4 µM: CCCCCCCCCCCCCCCCCCOP(=O)([O-])OC1CC[N+](C)(C)CC1
PLX4720, 0.08 µM: CCCS(=O)(=O)Nc1ccc(F)c(C(=O)c2c[nH]c3ncc(Cl)cc23)c1F
VX-702, 0.4 µM: NC(=O)c1ccc(N(C(N)=O)c2c(F)cccc2F)nc1-c1ccc(F)cc1F
nutlin-3, 0.1 µM: COc1ccc(C2=N[C@@H](c3ccc(Cl)cc3)[C@@H](c3ccc(Cl)cc3)N2C(=O)N2CCNC(=O)C2)c(OC(C)C)c1
docetaxel, 0.0001 µM: CC(=O)O[C@@]12CO[C@@H]1C[C@H](O)[C@@]1(C)C(=O)[C@H](O)C3=C(C)[C@@H](OC(=O)[C@H](O)[C@@H](NC(=O)OC(C)(C)C)c4ccccc4)C[C@@](O)([C@@H](OC(=O)c4ccccc4)[C@H]21)C3(C)C
NVP-BEZ235, 0.004 µM: Cn1c(=O)n(-c2ccc(C(C)(C)C#N)cc2)c2c3cc(-c4cnc5ccccc5c4)ccc3ncc21
fludarabine, 0.2 µM: Nc1nc(F)nc2c1ncn2[C@@H]1O[C@H](CO)[C@@H](O)[C@@H]1O
OSI-906, 0.4 µM: C[C@]1(O)C[C@@H](c2nc(-c3ccc4ccc(-c5ccccc5)nc4c3)c3c(N)nccn32)C1
TCS401, 1.67 µM: O=C(O)C(=O)Nc1sc2c(c1C(=O)O)CCNC2
stibogluconate, 2 µM: O=C(O)[C@@H]1[O][Sb](=[O])([O][Sb]2(=[O])[O][C@H]([C@H](O)CO)[C@H](O)[C@H](C(=O)O)[O]2)[O][C@H]([C@H](O)CO)[C@@H]1O (stereo not given in full)
KU-0063794, 0.02 µM: COc1ccc(-c2ccc3c(N4CCOCC4)nc(N4C[C@@H](C)O[C@@H](C)C4)nc3n2)cc1CO
GSK0660, 1 µM: COC(=O)c1sccc1S(=O)(=O)Nc1ccc(Nc2ccccc2)cc1OC
BI-D1870, 0.2 µM: CC(C)CCN1c2nc(Nc3cc(F)c(O)c(F)c3)ncc2N(C)C(=O)C1C (stereo not given)

| Drugs | COLO 829 |
|---|---|
| SU6656 + XAV939 | 100 |
| lestaurtinib + VX-702 | 125 |
| SU6656 + KU-0063794 | 87.4 |
| darinaparsin + TCS401 | 101 |
| ZM336372 + BI-D1870 | 99.8 |
| perifosine + VX-702 | 111 |
| NVP-BEZ235 + GSK0660 | 117 |
| enzastaurin + stibogluconate | 94.4 |
| lestaurtinib + nutlin-3 | 115 |
| docetaxel + GSK0660 | 61.7 |
| fludarabine + perifosine | 95.6 |
| lenalidomide + OSI-906 | 96.2 |
| PLX4720 + FK866 | 94.1 |

For reference, 2 entries once more:

Drugs	COLO 829
lestaurtinib + VX-702	125
SU6656 + KU-0063794	87.4

Data from the primary screen of doi:10.1371/journal.pone.0140310, rounded.